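A cell-based FRET test of anthrax lethal toxin entry, tracked through the 460 nm emission signal; the cell line is not named here. Each compound was tested as a concentration series from about 0.0005 to 40 µM. The number is the fitted AC50 of the 460 nm signal alone; lower values mean a more potent effect. A falling signal goes with compounds filed as inhibitors or cytotoxic, a rising one with activators or fluorescent compounds (inferred from the filed classes).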

Values are in nM. Common to all entries: measured here: 460 nm channel. This is a side read-out of the assay, for part of the compounds, not drawn at random. A potency from a partial, single-point or poor curve is only a rough figure. The first word of each remark tells which way the curve ran; it can be opposite to the aim of the assay.

* COc1ncc2nc(-c3cccs3)c(=O)n(-c3ccccc3)c2n1 | AC50 12589 nM (rising, partial curve)
* Cc1cc(C(=O)CSc2nc3ccccc3c(=O)n2C)c(C)n1Cc1ccc2c(c1)OCO2 | AC50 3981 nM (rising, single point)
* C=CCn1c(SCC(=O)NC2CCS(=O)(=O)C2)nc2scc(C3CC3)c2c1=O (stereo not drawn) | AC50 7943 nM (rising, partial curve)
* O=C(Cn1cnc2ccccc2c1=O)OCC(=O)c1ccc2c(c1)OCCO2 | AC50 3162 nM (falling, single point)
* COc1cc(-c2nnc(COc3ccc4ccccc4c3)o2)cc(OC)c1OC | AC50 3.981 nM (falling, full curve, poor fit)
* COc1ccc2c(c1)c(=O)c(Br)c(C)n2Cc1ccccc1 | AC50 10000 nM (falling, partial curve)
* CCN(CC)S(=O)(=O)c1ccc(NC(=O)c2cccc3c2C(=O)N(CCOC)C3)cc1 | AC50 5012 nM (rising, single point)
* CCOc1ccc(C2=Nn3c(nnc3-c3ccc(OC)cc3)SC2)cc1 | AC50 794.3 nM (falling, full curve, poor fit)
* CSc1ccc(C2Nc3ccccc3-c3cc(C)nn32)cc1 (stereo not drawn) | AC50 25118 nM (falling, partial curve)
* N#CC1=C(N)Oc2cc(N)ccc2C1C1CC=CCC1 (stereo not drawn) | AC50 10000 nM (rising, partial curve)
* O=C(C[N+]1(c2ccccc2)CCOCC1)c1ccccc1 | AC50 631 nM (falling, single point)
* O=C(Nc1nc(-c2ccccn2)cs1)C1COc2ccccc2O1 (stereo not drawn) | AC50 12589 nM (falling, partial curve, poor fit)
* COCCn1c(=O)c(-c2cn(C)c3ccccc23)nc2cnc(Oc3ccc(OC)cc3)nc21 | AC50 12589 nM (rising, partial curve)
* Cc1ccc(CNc2nc3ccccc3s2)s1 | AC50 100 nM (falling, full curve)
* O=c1c(-c2cccs2)nc2cnc(Oc3ccccc3)nc2n1-c1ccccc1 | AC50 12589 nM (rising, partial curve)
* CCc1cc(Cl)c(OC)c(C(=O)NC[C@@H]2CCCN2CC)c1O | AC50 7943 nM (falling, partial curve, poor fit)
* Cn1c(=O)[nH]c(=O)c2c1nc1n2CCCS1 | AC50 3.981 nM (rising, full curve, poor fit)
* COC(=O)[C@H](C)NC(=O)Nc1cccc(C(F)(F)F)c1 | AC50 398.1 nM (falling, partial curve)
* CN(C)/N=N\c1nc[nH]c1C(N)=O | AC50 158.5 nM (falling, partial curve, poor fit)
* Oc1ccc(Cl)cc1Cc1cc(Cl)ccc1O | AC50 15848 nM (falling, partial curve)
* O=C(CCCCn1c(=O)[nH]c2ccccc2c1=O)NCCc1c[nH]c2ccccc12 | AC50 31622 nM (falling, single point)
* COc1cccc2c(=O)c3c(cnn3C)n(C)c12 | AC50 10000 nM (rising, partial curve)
* CN(C)S(=O)(=O)c1cccc(C(=O)N(Cc2ccc(F)cc2)Cc2ccco2)c1 | AC50 15848 nM (rising, partial curve)
* CC[C@@H]1CN2CCc3cc(OC)c(OC)cc3[C@H]2C[C@@H]1C[C@H]1NCCc2cc(OC)c(OC)cc21 | AC50 31.62 nM (falling, full curve)
* COC(=O)C1=C(N)Oc2cc(C)n(Cc3ccncc3)c(=O)c2C1c1cccnc1 (stereo not drawn) | AC50 6310 nM (falling, partial curve)
* CSc1nc(NCCOCCO)c2sc3nc(-c4ccco4)c4c(c3c2n1)CCC4 | AC50 100 nM (falling, full curve, poor fit)
* C=CC(=O)OCCOCCOCCOCCOC(=O)C=C | AC50 10000 nM (falling, full curve, poor fit)
* CCN(c1ccccc1)c1cc(NC)[n+](C)c(C)n1 | AC50 12589 nM (falling, single point)
* Cc1ccc2c(c1)-c1c(cnn1CC(=O)N1CCCN(Cc3ccccc3F)C1)CO2 | AC50 398.1 nM (falling, full curve, poor fit)
* Cc1ccccc1 | AC50 12589 nM (rising, single point)
* CCSCC1COC(c2cccn2Cc2ccc(C)cc2)=N1 (stereo not drawn) | AC50 10000 nM (falling, partial curve, poor fit)
* COc1ccc2[nH]cc(CCNc3nc(-c4cccc(NS(C)(=O)=O)c4)nc4ccccc34)c2c1 | AC50 3981 nM (falling, single point)
* COc1ccc(N2CCN(CCNC(=O)c3c(C)cc(=O)oc3C)CC2)cc1 | AC50 1259 nM (rising, partial curve)

The last 3 entries again:

Result for CCSCC1COC(c2cccn2Cc2ccc(C)cc2)=N1 (stereo not drawn) was AC50 10000 nM (falling, partial curve, poor fit).
Result for COc1ccc2[nH]cc(CCNc3nc(-c4cccc(NS(C)(=O)=O)c4)nc4ccccc34)c2c1 was AC50 3981 nM (falling, single point).
Result for COc1ccc(N2CCN(CCNC(=O)c3c(C)cc(=O)oc3C)CC2)cc1 was AC50 1259 nM (rising, partial curve).

Data taken from PubChem BioAssay AID912, deposited by NCATS (2007).